The values that follow are results of earlier work, collected in patent US6503906B1 (priority 2002, dated 2003).

The data set deals with gram positive and negative bacteria. Conditions: human, in vivo; cited from earlier work.

Take `O=C(O)c1cn(C2CC2)c2cc(N3CCNCC3)c(F)cc2c1=O` [ciprofloxacin]: the patients remaining culture-positive entry is recorded as “more than 60%”.
